At least one structure is not confirmed: it was looked up by name or label, or the drawing left a doubt.
Legend:
[1] = tested on: spleen and inguinal lymph nodes of EAE mice; experiment: weight and size of secondary lymphoid organs in EAE mice; format: in vivo; details: exendin-4 1 mg/kg or dexamethasone 4 mg/kg daily; day 5
[2] = tested on: proliferating CD4 T cells; experiment: CD4 T cell proliferation (BrdU) of lymph node cells with MOG stimulation; format: in vivo, mice; details: lymph node cells day 5, MOG stimulation 48 hours; exendin-4 1 mg/kg or dexamethasone 4 mg/kg daily
[3] = tested on: IL-17+ and IFN-γ+ cells (Th17 and Th1); experiment: IL-17+ and IFN-γ+ CD4 cells in inguinal lymph nodes by FACS; format: in vivo, mice; details: exendin-4 1 mg/kg or dexamethasone 4 mg/kg daily; day 5
[4] = tested on: activated CD4 cells; experiment: T cell activation (CD4+CD44hi) in lymph nodes of EAE mice; format: in vivo; details: lymph node, day 5; exendin-4 1 mg/kg or dexamethasone 4 mg/kg daily

**Q.** What does the source list for C[C@@H]1C[C@H]2[C@@H]3CCC4=CC(=O)C=C[C@]4(C)[C@@]3(F)[C@@H](O)C[C@]2(C)[C@@]1(O)C(=O)CO [dexamethasone]?
**A.** inguinal lymph node weight [1]: reduced lymph node and spleen weight; spleen weight [1]: reduced lymph node and spleen weight; CD4 cell proliferation (CD4+/BrdU+) [2]: significantly inhibited CD4 cell proliferation; IFN-γ+ cell populations in lymph node [3]: reduction of IFN-γ+ cells; percentage of activated T cells (CD4+CD44hi) [4]: reduced the percentage of activated T cells back to naïve levels
